Literature values in patent publication US6414014B1 (Bristol-Myers Squibb Company, priority 1992, dated 2002).

Settings: cited from earlier work

## CC(=O)O[C@H]1C(=O)[C@@]2(C)[C@H]([C@H](OC(=O)c3ccccc3)[C@]3(O)C[C@H](OC(=O)[C@H](O)[C@@H](NC(=O)c4ccccc4)c4ccccc4)C(C)=C1C3(C)C)[C@]1(OC(C)=O)CO[C@@H]1C[C@@H]2O [taxol]
  solubility in water: extremely low
